Measurements reported in patent US20190223483A1, “SENSORY MODIFIER COMPOUNDS” (CARGILL, INCORPORATED, priority 2017, published 2019).
For at least one compound, name, drawing or mass did not settle the structure.

Assay: Roundtable assessment of mouthfeel (scale 0 to 2)
Type: in vivo
Set-up: key: 0 = water; 1 = sucrosey; 2 = syrupy
Experimental: For other sweetness attributes, the solutions were tested by a panel of at least four individuals that are highly-trained in tasting steviol glycoside solutions. The highly-trained panelists used a roundtable methodology to assess each sweetness attribute. To test each solution, the highly-trained panelists dispensed approximately 2 mL of each solution into their own mouths by transfer pipet, dispersed the solution by moving their tongues, and recorded a value for the particular sweetness attribute being tested. Between tasting solutions, the panelists were able to cleanse their palates with water. For each sweetness attribute, the panelist agreed on a descriptive scale with relative intensities assigned for each sweetness attribute and then recorded the values for each sweetness attribute against this. For example, this roundtable assessment of sweetness linger assigned a scale of 0 to 6 with a score of 0 indicating no sweetness linger and a score of 6 indicating extreme sweetness linger. Roundtable assessment of sweetness linger assigned a scale of 0 to 6 with a score of 0 indicating no sweetness linger and a score of 6 indicating extreme sweetness linger (0=none, 1=trace, 2=slight, 3=moderate, 4=definite, 5=strong, 6=extreme). Roundtable assessment of rounded assigned a scale of 0 to 3 with a score of 0 indicating spikey and a score of 3 indicating desirable rounded (0=none, 1=mostly spikey, some rounded, 2=mostly rounded, some spikey, 3=rounded). Roundtable assessment of mouthfeel assigned a scale of 0 to 2 with a score of 0 indicating water and a score of 2 indicating syrupy (0=water, 1=sucrosey, 2=syrupy). Roundtable assessment of bitterness assigned a scale of 0 to 6 with a score of 0 indicating no bitterness and a score of 6 indicating extreme sweetness linger (0=none, 1=trace, 2=slight, 3=moderate, 4=definite, 5=strong, 6=extreme). Roundtable assessment of off tastes assigned a scale of 0 to 6 with a score of 0 indicating no bitterness and a score of 6 indicating extreme off tastes (0=none, 1=trace, 2=slight, 3=moderate, 4=definite, 5=strong, 6=extreme).
A series of assays were carried out to characterize a sweetness quality of mouthfeel (0=water, 1=sucrosey, 2=syrupy) of steviol glycoside compositions with sensory modifier compound using the roundtable methodology described in Example 1. […] Solutions of steviol glycosides and sensory modifier compound were prepared at increasing ratios of sensory modifier to steviol glycoside by weight. The steviol glycosides were RebA (4 glycoside groups), RebD (5 glycoside groups), RebM (6 glycoside groups), and OPS1-5(7 glycoside groups) and the sensory modifier compound was monocaffeoylquinic and dicaffeoylquinic acids prepared from yerba mate. The concentration of steviol glycosides was 700 ppm in each solution. The solutions were tested for mouthfeel.

[1] = steviol glycoside 700 ppm, sensory modifier 0 ppm

Row | SMILES | Mouthfeel (steviol glycoside 700 ppm + yerba mate mono/dicaffeoylquinic acids 270 ppm) | Mouthfeel (steviol glycoside 700 ppm + yerba mate mono/dicaffeoylquinic acids 540 ppm) | Mouthfeel [1] | Mouthfeel (RebM 700 ppm + rosmarinic acid 195 ppm) | Mouthfeel (RebM 700 ppm + rosmarinic acid 391 ppm) | Mouthfeel (RebM 700 ppm + rosmarinic acid 586 ppm) | Mouthfeel (RebM 700 ppm, above 200 ppm sensory modifier) | Mouthfeel (steviol glycoside 700 ppm + yerba mate mono/dicaffeoylquinic acids 236 ppm) | Mouthfeel (steviol glycoside 700 ppm + yerba mate mono/dicaffeoylquinic acids 300 ppm) | Mouthfeel (steviol glycoside 700 ppm + yerba mate mono/dicaffeoylquinic acids 400 ppm) | Mouthfeel (steviol glycoside 700 ppm + yerba mate mono/dicaffeoylquinic acids 472 ppm) | Mouthfeel (steviol glycoside 700 ppm + yerba mate mono/dicaffeoylquinic acids 500 ppm) | Mouthfeel (steviol glycoside 700 ppm + yerba mate mono/dicaffeoylquinic acids 600 ppm) | Mouthfeel (steviol glycoside 700 ppm + yerba mate mono/dicaffeoylquinic acids 700 ppm) | Mouthfeel (steviol glycoside 700 ppm + yerba mate mono/dicaffeoylquinic acids 708 ppm) | Mouthfeel (steviol glycoside 700 ppm + yerba mate mono/dicaffeoylquinic acids 800 ppm)
1 | C=C1C[C@@]23CC[C@H]4[C@@](C)(CCC[C@@]4(C)C(=O)O[C@@H]4O[C@H](CO)[C@@H](O)[C@H](O)[C@H]4O[C@@H]4O[C@H](CO)[C@@H](O)[C@H](O)[C@H]4O)[C@@H]2CC[C@]1(O[C@@H]1O[C@H](CO)[C@@H](O)[C@H](O[C@@H]2O[C@H](CO)[C@@H](O)[C@H](O)[C@H]2O)[C@H]1O[C@@H]1O[C@H](CO)[C@@H](O)[C@H](O)[C@H]1O)C3 [RebD, Rebaudioside D] | 0 | 1 | 0 | – | – | – | – | – | – | – | – | – | – | – | – | –
2 | C=C1C[C@@]23CC[C@H]4[C@@](C)(CCC[C@@]4(C)C(=O)O[C@@H]4O[C@H](CO)[C@@H](O)[C@H](O)[C@H]4O)[C@@H]2CC[C@]1(O[C@@H]1O[C@H](CO)[C@@H](O)[C@H](O[C@@H]2O[C@H](CO)[C@@H](O)[C@H](O)[C@H]2O)[C@H]1O[C@@H]1O[C@H](CO)[C@@H](O)[C@H](O)[C@H]1O)C3 [RebA, Rebaudioside A] | – | – | 0 | – | – | – | – | – | – | – | – | – | – | – | – | –
3 | C=C1C[C@@]23CC[C@H]4[C@@](C)(CCC[C@@]4(C)C(=O)O[C@@H]4O[C@H](CO)[C@@H](O)[C@H](O[C@@H]5O[C@H](CO)[C@@H](O)[C@H](O)[C@H]5O)[C@H]4O[C@@H]4O[C@H](CO)[C@@H](O)[C@H](O)[C@H]4O)[C@@H]2CC[C@]1(O[C@@H]1O[C@H](CO)[C@@H](O)[C@H](O[C@@H]2O[C@H](CO)[C@@H](O)[C@H](O)[C@H]2O)[C@H]1O[C@@H]1O[C@H](CO)[C@@H](O)[C@H](O)[C@H]1O)C3 [RebM, Rebaudioside M] | – | – | 0 | 0 | 0 | 0 | 1 | 1 | 1 | 1 | 1 | 1 | 1 | 2 | 1 | 1
